Results: article PMC12003892
No constants are given. Whether binding was seen depends on the method and setting. Binding calls can cover weak binding; strength is not graded here. Sequences can lack the tags named with a protein.

Target: T1, MTG3^FLAG (C-terminally FLAG-tagged MTG3) (human) (UniProt Q8NC60)
T1 sequence: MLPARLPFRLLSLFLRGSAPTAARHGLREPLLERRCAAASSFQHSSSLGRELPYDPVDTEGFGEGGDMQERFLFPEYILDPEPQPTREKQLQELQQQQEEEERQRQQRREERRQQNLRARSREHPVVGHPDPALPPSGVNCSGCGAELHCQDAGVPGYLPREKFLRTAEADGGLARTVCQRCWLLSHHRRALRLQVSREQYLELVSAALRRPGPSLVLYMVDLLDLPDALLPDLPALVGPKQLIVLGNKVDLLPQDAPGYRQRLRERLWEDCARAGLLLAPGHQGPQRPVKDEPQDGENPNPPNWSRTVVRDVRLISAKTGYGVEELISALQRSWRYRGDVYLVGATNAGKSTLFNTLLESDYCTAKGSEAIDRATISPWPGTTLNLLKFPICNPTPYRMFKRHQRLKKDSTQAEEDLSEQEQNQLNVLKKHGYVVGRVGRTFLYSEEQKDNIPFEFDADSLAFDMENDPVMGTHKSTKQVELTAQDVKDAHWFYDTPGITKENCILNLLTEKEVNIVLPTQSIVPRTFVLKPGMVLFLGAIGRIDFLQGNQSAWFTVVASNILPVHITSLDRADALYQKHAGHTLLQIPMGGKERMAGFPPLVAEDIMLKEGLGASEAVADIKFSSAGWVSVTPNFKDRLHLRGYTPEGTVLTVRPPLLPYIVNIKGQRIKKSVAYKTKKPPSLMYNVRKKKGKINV
Experiment: cryo-EM structure; native mtSSU complexes from lysed mitoplasts isolated by FLAG-immunoprecipitation of MTG3^FLAG, eluate crosslinked with 0.15% glutaraldehyde; single-particle cryo-EM, states A-G

Row | Substance | binding
1 | METTL15 (human (endogenous in HEK293)) (enzyme) | binds
2 | uS11m (human (endogenous in HEK293)) | binds
